Experimental data: the supplement of paper PMC10849652
This is one part of the list.

By UniProt entry, the sequences of proteins in these tests, tags left out. Where a name states a change or a piece, a line headed by the entry shows the natural chain unless it says otherwise.
UniProt Q8NG11: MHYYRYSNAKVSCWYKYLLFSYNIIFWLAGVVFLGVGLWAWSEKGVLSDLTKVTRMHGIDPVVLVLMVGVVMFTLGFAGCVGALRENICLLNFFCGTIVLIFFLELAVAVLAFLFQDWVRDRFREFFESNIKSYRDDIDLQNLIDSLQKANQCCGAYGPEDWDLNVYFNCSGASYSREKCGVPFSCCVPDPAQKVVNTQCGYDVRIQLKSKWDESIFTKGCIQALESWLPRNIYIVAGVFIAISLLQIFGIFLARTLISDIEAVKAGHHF
UniProt Q9Y385: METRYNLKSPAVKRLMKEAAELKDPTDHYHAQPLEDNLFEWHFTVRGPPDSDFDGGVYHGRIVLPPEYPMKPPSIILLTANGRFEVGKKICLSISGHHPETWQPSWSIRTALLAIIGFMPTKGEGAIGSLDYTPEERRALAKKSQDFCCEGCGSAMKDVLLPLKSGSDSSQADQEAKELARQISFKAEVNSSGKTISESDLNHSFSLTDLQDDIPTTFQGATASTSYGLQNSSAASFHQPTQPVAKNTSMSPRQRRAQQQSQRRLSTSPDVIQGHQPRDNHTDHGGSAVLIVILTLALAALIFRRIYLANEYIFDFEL
UniProt P62256: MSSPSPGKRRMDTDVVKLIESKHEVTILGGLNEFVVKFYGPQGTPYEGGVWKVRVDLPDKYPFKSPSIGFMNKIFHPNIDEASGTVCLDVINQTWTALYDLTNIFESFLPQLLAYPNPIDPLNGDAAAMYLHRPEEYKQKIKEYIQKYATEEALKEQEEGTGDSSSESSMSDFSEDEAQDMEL
UniProt Q9BQE3, whole entry, looked up: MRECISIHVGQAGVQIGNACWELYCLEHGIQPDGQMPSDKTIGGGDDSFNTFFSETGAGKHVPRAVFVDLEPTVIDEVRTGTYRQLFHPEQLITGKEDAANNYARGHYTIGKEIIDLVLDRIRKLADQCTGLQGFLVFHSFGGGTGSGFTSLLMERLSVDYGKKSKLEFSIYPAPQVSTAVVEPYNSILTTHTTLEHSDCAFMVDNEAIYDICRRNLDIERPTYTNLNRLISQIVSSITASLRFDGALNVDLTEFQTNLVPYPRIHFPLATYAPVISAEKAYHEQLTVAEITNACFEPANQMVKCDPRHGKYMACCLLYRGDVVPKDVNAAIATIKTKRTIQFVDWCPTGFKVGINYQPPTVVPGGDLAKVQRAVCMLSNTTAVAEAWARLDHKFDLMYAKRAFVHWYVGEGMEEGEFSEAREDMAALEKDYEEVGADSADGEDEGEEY
UniProt P63279, whole entry, looked up: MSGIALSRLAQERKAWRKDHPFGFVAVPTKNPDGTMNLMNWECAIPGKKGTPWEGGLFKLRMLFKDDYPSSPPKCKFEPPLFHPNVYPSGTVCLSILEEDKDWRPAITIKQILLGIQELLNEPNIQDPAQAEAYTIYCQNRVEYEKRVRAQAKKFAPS
UniProt Q14157: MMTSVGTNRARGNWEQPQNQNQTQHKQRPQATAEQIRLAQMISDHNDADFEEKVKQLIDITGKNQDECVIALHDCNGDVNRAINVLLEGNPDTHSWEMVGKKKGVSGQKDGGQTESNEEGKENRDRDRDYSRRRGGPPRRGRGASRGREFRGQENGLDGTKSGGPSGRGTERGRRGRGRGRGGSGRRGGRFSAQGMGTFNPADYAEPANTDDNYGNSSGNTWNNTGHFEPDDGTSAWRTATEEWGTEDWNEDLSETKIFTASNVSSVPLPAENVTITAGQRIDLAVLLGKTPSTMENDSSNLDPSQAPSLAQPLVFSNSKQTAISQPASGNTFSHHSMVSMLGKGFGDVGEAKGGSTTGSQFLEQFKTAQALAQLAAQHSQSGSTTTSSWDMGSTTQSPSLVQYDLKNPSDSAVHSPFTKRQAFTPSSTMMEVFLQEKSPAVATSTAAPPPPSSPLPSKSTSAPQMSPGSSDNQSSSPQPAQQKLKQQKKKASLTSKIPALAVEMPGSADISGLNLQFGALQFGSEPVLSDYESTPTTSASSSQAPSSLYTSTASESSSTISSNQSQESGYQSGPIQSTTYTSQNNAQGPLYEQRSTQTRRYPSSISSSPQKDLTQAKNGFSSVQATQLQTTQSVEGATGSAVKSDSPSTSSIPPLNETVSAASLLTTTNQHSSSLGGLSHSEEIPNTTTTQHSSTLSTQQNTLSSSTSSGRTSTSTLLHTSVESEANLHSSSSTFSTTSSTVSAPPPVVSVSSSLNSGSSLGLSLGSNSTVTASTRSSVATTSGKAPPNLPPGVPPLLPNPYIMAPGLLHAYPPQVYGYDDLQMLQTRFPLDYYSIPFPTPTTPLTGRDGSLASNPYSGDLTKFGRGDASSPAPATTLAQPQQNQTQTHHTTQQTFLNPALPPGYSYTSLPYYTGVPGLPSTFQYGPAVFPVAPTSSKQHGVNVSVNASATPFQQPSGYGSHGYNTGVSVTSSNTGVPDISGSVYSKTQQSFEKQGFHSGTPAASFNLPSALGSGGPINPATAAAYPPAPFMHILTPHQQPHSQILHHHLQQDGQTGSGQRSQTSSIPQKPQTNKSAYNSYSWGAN
UniProt Q9BTX7: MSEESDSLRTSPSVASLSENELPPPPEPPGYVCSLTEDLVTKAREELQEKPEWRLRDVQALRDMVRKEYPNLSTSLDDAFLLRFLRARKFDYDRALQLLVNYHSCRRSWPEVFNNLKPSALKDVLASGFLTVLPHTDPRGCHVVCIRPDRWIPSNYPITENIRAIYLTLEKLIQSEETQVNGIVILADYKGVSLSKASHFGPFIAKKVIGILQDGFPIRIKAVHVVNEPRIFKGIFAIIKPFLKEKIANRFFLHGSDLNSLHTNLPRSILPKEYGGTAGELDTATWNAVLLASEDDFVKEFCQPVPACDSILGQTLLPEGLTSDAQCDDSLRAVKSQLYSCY
UniProt O43396: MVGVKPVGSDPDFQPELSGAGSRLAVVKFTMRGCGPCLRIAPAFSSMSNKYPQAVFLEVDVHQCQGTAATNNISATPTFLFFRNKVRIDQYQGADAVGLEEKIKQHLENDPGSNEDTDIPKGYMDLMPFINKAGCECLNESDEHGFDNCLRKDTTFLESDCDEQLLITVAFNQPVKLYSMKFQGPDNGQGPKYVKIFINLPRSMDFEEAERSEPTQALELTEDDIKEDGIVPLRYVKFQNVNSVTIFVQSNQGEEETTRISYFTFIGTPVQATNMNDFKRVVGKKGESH
UniProt Q9NZ09: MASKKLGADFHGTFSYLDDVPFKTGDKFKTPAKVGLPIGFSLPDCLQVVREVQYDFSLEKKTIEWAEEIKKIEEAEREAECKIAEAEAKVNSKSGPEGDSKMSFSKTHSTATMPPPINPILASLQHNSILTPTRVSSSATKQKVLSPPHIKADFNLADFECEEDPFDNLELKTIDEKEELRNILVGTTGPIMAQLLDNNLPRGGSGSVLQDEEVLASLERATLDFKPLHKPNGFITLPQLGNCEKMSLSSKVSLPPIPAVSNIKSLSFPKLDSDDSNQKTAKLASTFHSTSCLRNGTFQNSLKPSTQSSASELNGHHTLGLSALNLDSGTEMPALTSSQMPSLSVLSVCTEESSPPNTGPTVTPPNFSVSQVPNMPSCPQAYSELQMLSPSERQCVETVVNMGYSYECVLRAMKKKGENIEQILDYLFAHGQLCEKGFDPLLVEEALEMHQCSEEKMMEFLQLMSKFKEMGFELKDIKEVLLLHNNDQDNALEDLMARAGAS
UniProt Q99816: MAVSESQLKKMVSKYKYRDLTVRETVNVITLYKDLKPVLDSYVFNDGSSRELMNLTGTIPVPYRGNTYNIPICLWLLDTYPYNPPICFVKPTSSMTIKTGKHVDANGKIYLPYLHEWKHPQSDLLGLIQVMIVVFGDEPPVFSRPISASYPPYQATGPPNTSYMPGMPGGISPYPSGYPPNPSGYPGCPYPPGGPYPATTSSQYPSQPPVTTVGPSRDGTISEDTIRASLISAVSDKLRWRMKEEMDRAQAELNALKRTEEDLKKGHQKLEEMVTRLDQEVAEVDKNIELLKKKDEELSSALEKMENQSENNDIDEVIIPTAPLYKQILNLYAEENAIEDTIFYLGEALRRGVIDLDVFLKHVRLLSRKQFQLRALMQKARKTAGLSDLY
UniProt Q9NV66: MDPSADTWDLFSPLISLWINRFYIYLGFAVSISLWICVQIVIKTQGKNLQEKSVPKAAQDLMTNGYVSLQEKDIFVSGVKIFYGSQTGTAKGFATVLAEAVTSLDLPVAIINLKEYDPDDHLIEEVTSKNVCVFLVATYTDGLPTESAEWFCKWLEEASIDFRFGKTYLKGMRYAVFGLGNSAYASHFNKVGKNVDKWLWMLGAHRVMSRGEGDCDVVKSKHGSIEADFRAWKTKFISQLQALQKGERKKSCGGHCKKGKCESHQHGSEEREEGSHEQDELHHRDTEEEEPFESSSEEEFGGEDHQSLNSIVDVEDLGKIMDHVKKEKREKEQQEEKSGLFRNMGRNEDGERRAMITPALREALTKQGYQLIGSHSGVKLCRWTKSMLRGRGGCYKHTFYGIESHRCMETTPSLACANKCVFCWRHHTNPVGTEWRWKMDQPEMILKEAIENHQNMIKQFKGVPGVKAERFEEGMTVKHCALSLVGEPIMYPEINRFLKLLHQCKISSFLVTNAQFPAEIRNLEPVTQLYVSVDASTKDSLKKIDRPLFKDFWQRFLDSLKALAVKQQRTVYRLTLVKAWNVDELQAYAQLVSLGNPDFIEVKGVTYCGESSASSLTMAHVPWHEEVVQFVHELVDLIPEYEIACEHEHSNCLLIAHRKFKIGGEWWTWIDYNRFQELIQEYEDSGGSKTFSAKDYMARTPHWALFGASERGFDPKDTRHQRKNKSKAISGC
UniProt P22314: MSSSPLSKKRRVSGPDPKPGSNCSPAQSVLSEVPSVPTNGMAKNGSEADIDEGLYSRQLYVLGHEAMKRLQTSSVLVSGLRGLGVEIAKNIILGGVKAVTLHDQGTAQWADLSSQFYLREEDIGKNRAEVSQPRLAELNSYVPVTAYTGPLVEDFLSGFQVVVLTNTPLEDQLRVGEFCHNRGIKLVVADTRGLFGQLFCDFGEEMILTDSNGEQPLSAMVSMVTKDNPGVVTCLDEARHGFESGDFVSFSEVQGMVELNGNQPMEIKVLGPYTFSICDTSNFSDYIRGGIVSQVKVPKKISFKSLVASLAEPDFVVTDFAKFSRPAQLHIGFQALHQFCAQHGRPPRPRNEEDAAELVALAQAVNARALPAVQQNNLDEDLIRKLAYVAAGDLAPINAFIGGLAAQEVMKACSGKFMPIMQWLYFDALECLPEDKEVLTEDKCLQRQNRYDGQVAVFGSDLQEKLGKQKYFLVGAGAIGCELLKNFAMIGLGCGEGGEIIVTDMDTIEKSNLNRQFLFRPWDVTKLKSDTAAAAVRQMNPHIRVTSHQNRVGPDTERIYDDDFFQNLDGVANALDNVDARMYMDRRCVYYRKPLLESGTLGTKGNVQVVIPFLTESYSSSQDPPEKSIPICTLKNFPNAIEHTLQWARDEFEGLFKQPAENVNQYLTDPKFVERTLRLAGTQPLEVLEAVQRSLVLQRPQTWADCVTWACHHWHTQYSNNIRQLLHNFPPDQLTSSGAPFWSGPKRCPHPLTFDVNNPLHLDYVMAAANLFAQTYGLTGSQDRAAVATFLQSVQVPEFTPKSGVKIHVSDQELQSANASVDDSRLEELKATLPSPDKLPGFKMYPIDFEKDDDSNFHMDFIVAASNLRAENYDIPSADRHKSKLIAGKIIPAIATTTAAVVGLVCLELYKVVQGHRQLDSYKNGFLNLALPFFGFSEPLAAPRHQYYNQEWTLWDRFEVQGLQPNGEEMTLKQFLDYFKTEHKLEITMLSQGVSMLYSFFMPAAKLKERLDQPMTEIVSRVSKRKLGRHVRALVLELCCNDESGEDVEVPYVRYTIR
UniProt P43897: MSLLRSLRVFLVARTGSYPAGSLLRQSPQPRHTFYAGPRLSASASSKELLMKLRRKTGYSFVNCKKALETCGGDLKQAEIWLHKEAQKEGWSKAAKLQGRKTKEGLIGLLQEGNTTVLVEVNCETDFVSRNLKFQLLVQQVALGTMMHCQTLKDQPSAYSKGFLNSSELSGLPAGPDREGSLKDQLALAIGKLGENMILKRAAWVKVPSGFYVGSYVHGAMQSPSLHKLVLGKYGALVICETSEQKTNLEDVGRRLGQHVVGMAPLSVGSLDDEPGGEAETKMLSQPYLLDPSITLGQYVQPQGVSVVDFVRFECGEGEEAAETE
UniProt P26368, whole entry, looked up: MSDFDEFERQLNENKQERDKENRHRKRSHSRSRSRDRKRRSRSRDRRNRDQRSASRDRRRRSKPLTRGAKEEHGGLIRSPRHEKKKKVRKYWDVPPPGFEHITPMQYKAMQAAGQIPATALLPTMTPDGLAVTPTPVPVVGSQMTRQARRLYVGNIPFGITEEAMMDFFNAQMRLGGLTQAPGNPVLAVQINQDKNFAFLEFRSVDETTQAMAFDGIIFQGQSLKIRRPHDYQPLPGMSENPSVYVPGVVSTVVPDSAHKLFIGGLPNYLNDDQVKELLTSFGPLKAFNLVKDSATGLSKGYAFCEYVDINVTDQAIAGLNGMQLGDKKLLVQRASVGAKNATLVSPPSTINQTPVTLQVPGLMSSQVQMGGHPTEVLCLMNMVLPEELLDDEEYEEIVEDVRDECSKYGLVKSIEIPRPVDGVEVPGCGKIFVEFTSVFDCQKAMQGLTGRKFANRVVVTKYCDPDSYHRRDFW

The targets below were run with CCCS(=O)(=O)Nc1ccc(F)c(C(=O)c2c[nH]c3ncc(-c4ccc(Cl)cc4)cc23)c1F [vemurafenib] (assay: log2 fold change, soluble protein after heating vs DMSO (PISA); higher = thermal stabilisation; K562 cells, 10 uM, 30 min; active = over 0.2 and 3.5 SD of the protein, either way, in both replicates (recomputed)).
Procedure, shortened: (§1)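 K562 cells at 2×10^6 cells/mL were given 10 μM compound for 30 min. Aliquots then went through 3 min of heating across 48°C-58°C, were pooled, and were extracted in PBS with 0.5% NP-40 at 4°C, and the supernatant after 21,000xg for 90 min was quantified by TMTpro 16plex LC-MS/MS with channel sums equalised. Thermal stability relative to control samples, from duplicates, is given as log2 fold change.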

Q: How did the log2 fold change turn out when TSPAN14 (UniProt Q8NG11) was run?
A: inactive: -0.023

Q: Which log2 fold change does the source give for UBE2J1 (UniProt Q9Y385) here?
A: inactive: -0.087

Q: With UBE2H (UniProt P62256) as the target, how does the log2 fold change read?
A: inactive: -0.006

Q: Which log2 fold change does the source give for TUBA1C (UniProt Q9BQE3) here?
A: inactive: -0.005

Q: Which log2 fold change does the source give for UBE2I (UniProt P63279) here?
A: inactive: 0.044

Q: With UBAP2L isoform 1 (UniProt Q14157) as the target, how does the log2 fold change read?
A: inactive: -0.083

Q: Which log2 fold change does the source give for TTPAL (UniProt Q9BTX7) here?
A: inactive: -0.085

Q: For TXNRD1 (UniProt Q16881), which log2 fold change is on record?
A: inactive: 0.024

Q: Which log2 fold change does the source give for TXNL1 (UniProt O43396) here?
A: inactive: 0.037

Q: Which log2 fold change does the source give for TTC27 (UniProt Q6P3X3) here?
A: inactive: -0.041

Q: How did the log2 fold change turn out when TTI2 (UniProt Q6NXR4) was run?
A: inactive: 0.047

Q: With UAP1L1 (UniProt Q3KQV9) as the target, how does the log2 fold change read?
A: inactive: 0.02

Q: TXNIP (UniProt Q9H3M7) was tested. Which log2 fold change did it give?
A: inactive: -0.005

Q: UBAP1 isoform 4 (UniProt Q9NZ09) was tested. Which log2 fold change did it give?
A: inactive: 0.005

Q: Which log2 fold change does the source give for UBAP2L isoform 5 (UniProt Q14157) here?
A: inactive: -0.008

Q: Which log2 fold change does the source give for TSG101 (UniProt Q99816) here?
A: inactive: 0.021

Q: For TUBA1B (UniProt P68363), which log2 fold change is on record?
A: inactive: -0.02

Q: UBA52 (UniProt P62987) was tested. Which log2 fold change did it give?
A: inactive: -0.212

Q: For UBE2G1 (UniProt P62253), which log2 fold change is on record?
A: inactive: 0.001

Q: For TYW1 (UniProt Q9NV66), which log2 fold change is on record?
A: inactive: 0.025

Q: For TXN2 (UniProt Q99757), which log2 fold change is on record?
A: inactive: 0.006

Q: UBA1 (UniProt P22314) was tested. Which log2 fold change did it give?
A: inactive: 0.084

Q: For UBA6, which log2 fold change is on record?
A: inactive: 0.057

Q: How did the log2 fold change turn out when TUBB3 (UniProt Q13509) was run?
A: inactive: 0.011

Q: For TSFM (UniProt P43897), which log2 fold change is on record?
A: inactive: 0.08

Q: TWF2 (UniProt Q6IBS0) was tested. Which log2 fold change did it give?
A: inactive: 0.011

Q: TXLNG (UniProt Q9NUQ3) was tested. Which log2 fold change did it give?
A: inactive: -0.008

Q: For TTN isoform 12 (UniProt Q8WZ42), which log2 fold change is on record?
A: inactive: -0.171

Q: How did the log2 fold change turn out when U2AF2 (UniProt P26368) was run?
A: inactive: 0.031

Q: For TSR2 (UniProt Q969E8), which log2 fold change is on record?
A: inactive: 0.039

Q: For TUFM (UniProt P49411), which log2 fold change is on record?
A: inactive: 0.028

Each target was assayed with CCCS(=O)(=O)Nc1ccc(F)c(C(=O)c2c[nH]c3ncc(Cl)cc23)c1F in the same assay as above.
Procedure, shortened: as §1

Q: With TSPAN14 (UniProt Q8NG11) as the target, how does the log2 fold change read?
A: inactive: -0.003

Q: For UBE2J1 (UniProt Q9Y385), which log2 fold change is on record?
A: inactive: -0.071

Q: UBE2H (UniProt P62256) was tested. Which log2 fold change did it give?
A: inactive: 0.073

Q: For TUBA1C (UniProt Q9BQE3), which log2 fold change is on record?
A: inactive: -0.016

Q: How did the log2 fold change turn out when UBE2I (UniProt P63279) was run?
A: inactive: -0.066

Q: How did the log2 fold change turn out when UBAP2L isoform 1 (UniProt Q14157) was run?
A: active: 0.246

Q: TTPAL (UniProt Q9BTX7) was tested. Which log2 fold change did it give?
A: inactive: -0.013

Q: With TXNRD1 (UniProt Q16881) as the target, how does the log2 fold change read?
A: inactive: 0.007

Q: TXNL1 (UniProt O43396) was tested. Which log2 fold change did it give?
A: inactive: 0.079

Q: How did the log2 fold change turn out when TTC27 (UniProt Q6P3X3) was run?
A: inactive: 0.068

Q: TTI2 (UniProt Q6NXR4) was tested. Which log2 fold change did it give?
A: inactive: 0.06

Q: Which log2 fold change does the source give for UAP1L1 (UniProt Q3KQV9) here?
A: inactive: -0.027

Q: TXNIP (UniProt Q9H3M7) was tested. Which log2 fold change did it give?
A: inactive: -0.079

Q: With UBAP1 isoform 4 (UniProt Q9NZ09) as the target, how does the log2 fold change read?
A: inactive: 0.159

Q: With UBAP2L isoform 5 (UniProt Q14157) as the target, how does the log2 fold change read?
A: inactive: 0.006

Q: With TSG101 (UniProt Q99816) as the target, how does the log2 fold change read?
A: inactive: 0.024

Q: For TUBA1B (UniProt P68363), which log2 fold change is on record?
A: inactive: -0.011

Q: UBA52 (UniProt P62987) was tested. Which log2 fold change did it give?
A: inactive: -0.165

Q: With UBE2G1 (UniProt P62253) as the target, how does the log2 fold change read?
A: inactive: 0.08

Q: TYW1 (UniProt Q9NV66) was tested. Which log2 fold change did it give?
A: inactive: 0.084

Q: For TXN2 (UniProt Q99757), which log2 fold change is on record?
A: inactive: -0.048

Q: UBA1 (UniProt P22314) was tested. Which log2 fold change did it give?
A: inactive: 0.089

Q: Which log2 fold change does the source give for UBA6 here?
A: inactive: 0.086

Q: For TUBB3 (UniProt Q13509), which log2 fold change is on record?
A: inactive: 0.018

Q: TSFM (UniProt P43897) was tested. Which log2 fold change did it give?
A: inactive: 0.034

Q: For TWF2 (UniProt Q6IBS0), which log2 fold change is on record?
A: inactive: 0.019

Q: Which log2 fold change does the source give for TXLNG (UniProt Q9NUQ3) here?
A: inactive: 0.004

Q: TTN isoform 12 (UniProt Q8WZ42) was tested. Which log2 fold change did it give?
A: inactive: -0.271

Q: U2AF2 (UniProt P26368) was tested. Which log2 fold change did it give?
A: inactive: 0.001

Q: TSR2 (UniProt Q969E8) was tested. Which log2 fold change did it give?
A: inactive: 0.073

Q: TUFM (UniProt P49411) was tested. Which log2 fold change did it give?
A: inactive: 0.044
